Common to all, as to experiment: glycan array binding signal (z-score within array); higher = stronger binding
Conditions in all cases: glycan notation: IUPAC condensed, linker removed

Assay [1] addresses Gal(b1-4)GlcNAc(b1-3)Gal(b1-4)GlcNAc(b1-3)Gal(b1-4)GlcNAc(b1-3)Gal(b1-4)GlcNAc(b1-2)Man(a1-3)[Gal(b1-4)GlcNAc(b1-3)Gal(b1-4)GlcNAc(b1-3)Gal(b1-4)GlcNAc(b1-3)Gal(b1-4)GlcNAc(b1-2)Man(a1-6)]Man(b1-4)GlcNAc(b1-4)[Fuc(a1-6)]GlcNAc. The method, boiled down:
(§1)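 Glycan array binding is given as a within-array Z-score, which can be read as non-binding when negative. The arrays, 3228 of them, came from the Consortium for Functional Glycomics database and were retained only where the protein sequence was available. Z-scores were averaged across arrays of the same protein sequence at different concentrations or buffers and across linkers.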

Assay [2] concerns the target Gal(b1-4)GlcNAc(b1-3)Gal(b1-4)GlcNAc(b1-3)Gal(b1-4)GlcNAc(b1-3)Gal(b1-4)GlcNAc(b1-2)[Gal(b1-4)GlcNAc(b1-3)Gal(b1-4)GlcNAc(b1-3)Gal(b1-4)GlcNAc(b1-3)Gal(b1-4)GlcNAc(b1-6)]Man(a1-6)[Gal(b1-4)GlcNAc(b1-3)Gal(b1-4)GlcNAc(b1-3)Gal(b1-4)GlcNAc(b1-3)Gal(b1-4)GlcNAc(b1-2)Man(a1-3)]Man(b1-4)GlcNAc(b1-4)[Fuc(a1-6)]GlcNAc. The method, boiled down: as §1
Assay [3] addresses Gal(b1-4)GlcNAc(b1-3)Gal(b1-4)GlcNAc(b1-3)Gal(b1-4)GlcNAc(b1-3)Gal(b1-4)GlcNAc(b1-3)Gal(b1-4)GlcNAc(b1-2)Man(a1-3)[Gal(b1-4)GlcNAc(b1-3)Gal(b1-4)GlcNAc(b1-3)Gal(b1-4)GlcNAc(b1-3)Gal(b1-4)GlcNAc(b1-3)Gal(b1-4)GlcNAc(b1-2)Man(a1-6)]Man(b1-4)GlcNAc(b1-4)GlcNAc. Summed up: as §1
Assay [4] has as its target Gal(b1-4)GlcNAc(b1-3)Gal(b1-4)GlcNAc(b1-3)Gal(b1-4)GlcNAc(b1-3)Gal(b1-4)GlcNAc(b1-3)Gal(b1-4)GlcNAc(b1-2)Man(a1-3)[Gal(b1-4)GlcNAc(b1-3)Gal(b1-4)GlcNAc(b1-3)Gal(b1-4)GlcNAc(b1-3)Gal(b1-4)GlcNAc(b1-3)Gal(b1-4)GlcNAc(b1-2)Man(a1-6)]Man(b1-4)GlcNAc(b1-4)[Fuc(a1-6)]GlcNAc. The method, boiled down:
as §1

In assay [5] the target is Gal(b1-4)GlcNAc(b1-3)Gal(b1-4)GlcNAc(b1-3)Gal(b1-4)GlcNAc(b1-3)Gal(b1-4)GlcNAc(b1-3)Gal(b1-4)GlcNAc(b1-2)[Gal(b1-4)GlcNAc(b1-3)Gal(b1-4)GlcNAc(b1-3)Gal(b1-4)GlcNAc(b1-3)Gal(b1-4)GlcNAc(b1-3)Gal(b1-4)GlcNAc(b1-6)]Man(a1-6)[Gal(b1-4)GlcNAc(b1-3)Gal(b1-4)GlcNAc(b1-3)Gal(b1-4)GlcNAc(b1-3)Gal(b1-4)GlcNAc(b1-3)Gal(b1-4)GlcNAc(b1-2)Man(a1-3)]Man(b1-4)GlcNAc(b1-4)[Fuc(a1-6)]GlcNAc. Summed up: as §1

In assay [6] the target is Gal(b1-4)GlcNAc(b1-3)Gal(b1-4)GlcNAc(b1-3)Gal(b1-4)GlcNAc(b1-3)Gal(b1-4)GlcNAc(b1-3)Gal(b1-4)GlcNAc(b1-3)Gal(b1-4)GlcNAc(b1-2)Man(a1-3)[Gal(b1-4)GlcNAc(b1-3)Gal(b1-4)GlcNAc(b1-3)Gal(b1-4)GlcNAc(b1-3)Gal(b1-4)GlcNAc(b1-3)Gal(b1-4)GlcNAc(b1-3)Gal(b1-4)GlcNAc(b1-2)Man(a1-6)]Man(b1-4)GlcNAc(b1-4)GlcNAc. The method, boiled down:
as §1

The target of assay [7] is Gal(b1-4)GlcNAc(b1-3)Gal(b1-4)GlcNAc(b1-3)GalNAc. The method, boiled down:
as §1

Assay [8] addresses Gal(b1-4)GlcNAc(b1-3)Gal(b1-4)GlcNAc(b1-3)[Gal(b1-4)GlcNAc(b1-3)Gal(b1-4)GlcNAc(b1-6)]GalNAc. The method, boiled down: as §1
The target of assay [9] is Gal(b1-4)GlcNAc(b1-3)Gal(b1-4)GlcNAc(b1-6)[Gal(b1-3)]GalNAc. The method, boiled down:
as §1

Assay [10] concerns the target Gal(b1-4)GlcNAc(b1-3)Gal(b1-4)[Fuc(a1-3)]GlcNAc(b1-3)Gal(b1-4)[Fuc(a1-3)]GlcNAc. The method, boiled down:
as §1

Assay [11] deals with Gal(b1-4)GlcNAc(b1-3)GalNAc. The method, boiled down:
as §1

In assay [12] the target is Gal(b1-4)GlcNAc(b1-3)[Fuc(a1-3)GlcNAc(b1-6)]Gal(b1-4)Glc. The method, boiled down: as §1
The target of assay [13] is Gal(b1-4)GlcNAc(b1-3)[Gal(b1-4)GlcNAc(b1-6)]Gal(b1-4)GlcNAc. The method, boiled down: as §1
For assay [14], the target named is Gal(b1-4)GlcNAc(b1-3)[GlcNAc(b1-6)]Gal(b1-4)GlcNAc. The method, boiled down:
as §1

Assay [15] concerns the target Gal(b1-4)GlcNAc(b1-6)Gal(b1-4)GlcNAc. Summed up:
as §1

In assay [16] the target is Gal(b1-4)GlcNAc(b1-6)GalNAc. The method, boiled down:
as §1

Assay [17] deals with Gal(b1-4)GlcNAc(b1-6)[Gal(b1-3)]GalNAc. Summed up:
as §1

Assay [18] has as its target Gal(b1-4)GlcNAc(b1-6)[Gal(b1-4)GlcNAc(b1-3)]GalNAc. Summed up: as §1
Assay [19] addresses Gal(b1-4)GlcNAc6P. The method, boiled down: as §1
Assay [20] deals with Gal(b1-6)Gal. The method, boiled down:
as §1

For assay [21], the target named is Gal3S(b1-3)GalNAc. The method, boiled down: as §1
The target in assay [22] is Gal3S(b1-3)GlcNAc. Summed up: as §1
Assay [23] concerns the target Gal3S(b1-3)[Fuc(a1-4)]GlcNAc. Summed up: as §1

This is one part of the list.

B1: Clone646PsrP (Streptococcus pneumoniae) (protein)
chain: MDHHHHHHHHASENLYFQGAPAINASLNIAKSETKVYTGEGVDSVYRVPIYYKLKVTNDGSKLTFTYTVTYVNPKTNDLGNISSMRPGYSIYNSGTSTQTMLTLGSDLGKPSGVKNYITDKNGRQVLSYNTSTMTTQGSGYTWGNGAQMNGFFAKKGYGLTSSWTVPITGTDTSFTFTPYAARTDRIGINYFNGGGKVVESSTTSQSLSQSKSLSVSAS
As for B1, the “glycan array binding signal (z-score)” value in assay [1] was -0.114; in assay [2], -0.633; in [3], -0.328; in assay [4], 0.018; in [5], -0.364; in assay [6], -0.635. For the same molecule, the “glycan array binding signal (z-score)” value in assay [7] was -0.462; in [8], -0.671; in assay [9], 0.079; in [10], -0.172; in [11] it was -0.267; in [12] it was -0.582. The “glycan array binding signal (z-score)” value in [13] is 0.052; in assay [14] it was -0.238; in assay [15], -0.147; in assay [16], 0.27; in assay [17] it was 0.263; in [18] it was -0.293. Also, the “glycan array binding signal (z-score)” value came to 2.57 in assay [19]; 0.915 in assay [20]; 1.57 in assay [21]; 1.45 in [22]; 0.934 in assay [23].

(Values after the supplement of paper PMC8728848.)
